PubChem BioAssay AID1259254, NCATS | 2017
Screen: 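Genome-wide screen for genes that prevent DNA re-replication in cancer cells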 (primary screen). Cell system: human HCT116 colorectal cancer cells. Reagent: single siRNA against human genes. Duration: 3 days. Read-out: 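Imaged Hoechst DNA stain sorts each cell into a cycle phase by DNA amount; per plate, G2 fraction set to 0% for non-targeting and 100% for GMNN siRNA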. Reading the numbers: G2 robust z-score and G2 cells, % of GMNN control: higher = more G2 cells, more excess DNA replication. Hit rule: 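Active siRNAs have a G2 robust z of 5 or more median absolute deviations over the median, which in these data means about 38% or higher of GMNN control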.
The whole screen tested about 59,000 reagents; this is a random part of them. About 1,550 of them (2.6%) count as active. 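G2 share is only a proxy for re-replication; each gene was hit by three separate siRNAs, and active genes were retested.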 The numbers tell different reagents against one gene apart. Not all columns of the deposit are shown. Reagent sequences are not shown. Not stated in the record: the amount of reagent.

PLIN5 (perilipin 5) #1 — G2 robust z-score = 2.08; G2 cells, % of GMNN control = 17.6; activity call = inactive
PLIN5 (perilipin 5) #2 — G2 robust z-score = 0.0165; G2 cells, % of GMNN control = 3.08; activity call = inactive
PLIN5 (perilipin 5) #3 — G2 robust z-score = 0.189; G2 cells, % of GMNN control = 4.3; activity call = inactive
DNASE1 (deoxyribonuclease 1) #1 — G2 robust z-score = 1.24; G2 cells, % of GMNN control = 11.7; activity call = inactive
DNASE1 (deoxyribonuclease 1) #2 — G2 robust z-score = 3.22; G2 cells, % of GMNN control = 25.7; activity call = inactive
DNASE1 (deoxyribonuclease 1) #3 — G2 robust z-score = -0.117; G2 cells, % of GMNN control = 2.14; activity call = inactive
SMURF1 (SMAD specific E3 ubiquitin protein ligase 1) #1 — G2 robust z-score = -0.663; G2 cells, % of GMNN control = -1.7; activity call = inactive
SMURF1 (SMAD specific E3 ubiquitin protein ligase 1) #2 — G2 robust z-score = 1.65; G2 cells, % of GMNN control = 14.6; activity call = inactive
SMURF1 (SMAD specific E3 ubiquitin protein ligase 1) #3 — G2 robust z-score = -0.196; G2 cells, % of GMNN control = 1.59; activity call = inactive
CHRNE (cholinergic receptor nicotinic epsilon subunit) #1 — G2 robust z-score = -0.175; G2 cells, % of GMNN control = 1.74; activity call = inactive
CHRNE (cholinergic receptor nicotinic epsilon subunit) #2 — G2 robust z-score = 1.89; G2 cells, % of GMNN control = 16.3; activity call = inactive
CHRNE (cholinergic receptor nicotinic epsilon subunit) #3 — G2 robust z-score = 2.5; G2 cells, % of GMNN control = 20.5; activity call = inactive
BLID (BH3-like motif containing, cell death inducer) #1 — G2 robust z-score = -0.462; G2 cells, % of GMNN control = -0.282; activity call = inactive
BLID (BH3-like motif containing, cell death inducer) #2 — G2 robust z-score = 1.59; G2 cells, % of GMNN control = 14.2; activity call = inactive
BLID (BH3-like motif containing, cell death inducer) #3 — G2 robust z-score = 3.05; G2 cells, % of GMNN control = 24.4; activity call = inactive
STK31 (serine/threonine kinase 31) #1 — G2 robust z-score = -1.07; G2 cells, % of GMNN control = -4.54; activity call = inactive
STK31 (serine/threonine kinase 31) #2 — G2 robust z-score = -0.176; G2 cells, % of GMNN control = 1.73; activity call = inactive
STK31 (serine/threonine kinase 31) #3 — G2 robust z-score = 5.26; G2 cells, % of GMNN control = 40; activity call = active
CEP95 (centrosomal protein 95) #1 — G2 robust z-score = -0.306; G2 cells, % of GMNN control = 0.816; activity call = inactive
CEP95 (centrosomal protein 95) #2 — G2 robust z-score = 0.313; G2 cells, % of GMNN control = 5.17; activity call = inactive
CEP95 (centrosomal protein 95) #3 — G2 robust z-score = 0.219; G2 cells, % of GMNN control = 4.51; activity call = inactive
YIF1B #1 — G2 robust z-score = 0.582; G2 cells, % of GMNN control = 7.06; activity call = inactive
YIF1B #2 — G2 robust z-score = 0.424; G2 cells, % of GMNN control = 5.95; activity call = inactive
YIF1B #3 — G2 robust z-score = 0.492; G2 cells, % of GMNN control = 6.43; activity call = inactive
YIF1B #4 — G2 robust z-score = -0.877; G2 cells, % of GMNN control = -3.21; activity call = inactive
YIF1B #5 — G2 robust z-score = -0.529; G2 cells, % of GMNN control = -0.752; activity call = inactive
YIF1B #6 — G2 robust z-score = -0.18; G2 cells, % of GMNN control = 1.7; activity call = inactive
TMEFF2 #1 — G2 robust z-score = -1.24; G2 cells, % of GMNN control = -5.79; activity call = inactive
TMEFF2 #2 — G2 robust z-score = -1.03; G2 cells, % of GMNN control = -4.27; activity call = inactive
TMEFF2 #3 — G2 robust z-score = 0.142; G2 cells, % of GMNN control = 3.96; activity call = inactive

Not a retest: 4 of the entries above.
YIF1B #1 — G2 robust z-score = 0.582; G2 cells, % of GMNN control = 7.06; activity call = inactive
YIF1B #2 — G2 robust z-score = 0.424; G2 cells, % of GMNN control = 5.95; activity call = inactive
YIF1B #3 — G2 robust z-score = 0.492; G2 cells, % of GMNN control = 6.43; activity call = inactive
YIF1B #4 — G2 robust z-score = -0.877; G2 cells, % of GMNN control = -3.21; activity call = inactive
